# Measured values published in PubChem BioAssay AID662 (National Center for Advancing Translational Sciences (NCATS), 2007).
# This is one part of the list. Further columns of the screen follow, without active or inactive calls. Most of these compounds were active or inconclusive in the main read-out, so they are no random draw. Words in brackets tell the shape of the fitted curve; partial curves, single points and poor fits give uncertain potencies.
# Experiment: Cell signaling CRE-BLA (Fsk stim)
# Conditions: CHO CRE-bla reporter (cAMP response element driving beta-lactamase), forskolin EC10, beta-lactamase ratio; measured here: 460 nm blue channel
# Method in brief: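 CRE-bla CHO reporter cells treated with compound titration plus EC10 NKH 477 (water-soluble forskolin), incubated 3 h at 37 °C; CCF4 loading 2 h at room temperature, 460/530 nm emission ratio read, AC50 values derived for positive or negative modulators.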
row,SMILES,AC50
1,O=C(NCC1CCCO1)c1sc(=S)n2c1[nH]c(=O)c1ccc(C(=O)N3CCCCC3)cc12 (centres undefined),"1 µM [rising, partial curve]"
2,O=C(Nc1ccc(Oc2ccc(NC(=O)C3CCCO3)cc2)cc1)C1CCCO1 (centres undefined),"0.398 µM [rising, partial curve]"
3,CCC(C)Nc1nc2c(c(=O)[nH]c(=O)n2C)n1CCC(C)C (centres undefined),"10 µM [rising, partial curve]"
4,CC1Cc2ccccc2N1C(=O)CSc1nc2c(c(=O)n(C)c(=O)n2C)n1Cc1ccccc1 (centres undefined),"2.51 µM [rising, full curve]"
5,CCOC(=O)c1cccc2c1-c1ccccc1/C2=N/O,"0.398 µM [falling, full curve, poor fit]"
6,Cc1cc(N)n(-c2nc(-c3cccnc3)nc3ccccc23)n1,"3.16 µM [rising, full curve]"
7,COc1ccccc1-c1nc(Nc2ccncc2)c2ccccc2n1,"5.01 µM [rising, single point]"
8,CC(=O)n1nc(-c2ccco2)nc1N,"0.316 µM [falling, partial curve]"
9,N#Cc1c2n(c3c(=O)n(Cc4ccc(Cl)cc4)cnc13)CCCC2,"10 µM [rising, partial curve]"
10,COC(=O)c1ccccc1NC(=O)CSc1nc(NC(=O)c2ccccc2)c2c(C)c(C)oc2n1,"3.16 µM [rising, partial curve]"
11,CC(=O)Nc1nc2ncc(C=O)nc2c(=O)[nH]1,"0.158 µM [rising, full curve, poor fit]"
12,Cc1ccccc1S(=O)(=O)Cc1ccc(C(=O)NCCCOC(C)C)o1,"25.1 µM [falling, single point]"
13,O=c1c(-c2ccc(Cl)cc2)nc2cnc(N3CCOCC3)nc2n1C[C@H]1CCCO1,"0.794 µM [rising, full curve]"
14,Cn1c2ccccc2c2nnc(SCc3ccc4nonc4c3)nc21,"6.31 µM [rising, partial curve]"
15,COc1ccc(N2CCN(S(=O)(=O)c3ccc(OC)cc3)CC2)cc1,"0.631 µM [rising, full curve]"
16,CSc1nsc(SC)c1C(=O)OCC(F)(F)F,"10 µM [rising, partial curve]"
17,CCOc1ccc2nc(-c3ccc(OC)c(OC)c3)cc(C(=O)O)c2c1,"12.6 µM [rising, single point]"
18,CN(Cc1ccccc1)Cc1nc2c(c(=O)n(C)c(=O)n2C)n1Cc1ccc(Cl)cc1,"15.8 µM [rising, single point]"
19,COc1ccccc1-c1nnc2sc(-c3ccc(N(C)C)cc3)nn12,"0.398 µM [rising, full curve]"
20,O=C(NCCN1CCN(c2ccccc2)CC1)c1cccc(Br)c1,"0.1 µM [falling, full curve, poor fit]"
21,N#CCc1ccc(NC(=O)Nc2cccc(Cl)c2)cc1,"25.1 µM [rising, single point]"
22,CCC/C=C(\CCC)C(NC(=O)OCC(C)C)c1ccc(C(=O)OC)cc1 (centres undefined),"5.01 µM [rising, single point]"

# 2 successive compounds already listed:
row,SMILES,AC50
1,O=C(NCC1CCCO1)c1sc(=S)n2c1[nH]c(=O)c1ccc(C(=O)N3CCCCC3)cc12 (centres undefined),"1 µM [rising, partial curve]"
2,O=C(Nc1ccc(Oc2ccc(NC(=O)C3CCCO3)cc2)cc1)C1CCCO1 (centres undefined),"0.398 µM [rising, partial curve]"

# (next part)

row,SMILES,AC50
1,COCCn1c(=O)c(-c2ccc(F)cc2)nc2cnc(N3CCOCC3)nc21,"2.51 µM [rising, full curve]"
2,Cn1c(=O)c(-c2ccc(Cl)cc2)nc2cnc(N3CCOCC3)nc21,"5.01 µM [rising, partial curve]"
3,CCOC(=O)CNC(=O)CSc1nc(N)cc(N)n1,"15.8 µM [falling, single point]"
4,COc1cc2cc(C)c(SCC(=O)N3CCOCC3)nc2cc1OC,"12.6 µM [rising, single point]"
5,O=C1NC(c2ccco2)Nc2sc3c(c21)CCN(Cc1ccccc1)C3 (centres undefined),"3.98 µM [rising, full curve]"
6,COc1ccc(OC)c(C2C3CN(C(C)C)CC=C3C(C#N)=C(N)C2(C#N)C#N)c1 (centres undefined),"10 µM [rising, partial curve]"
7,Cc1nc2ccccc2c(=O)n1/N=C/c1ccc(N(C)C)cc1,"5.01 µM [falling, single point]"
8,CCCCC[C@H](O)CCCC(=O)O,"12.6 µM [falling, single point]"
9,CCN1CCN(C(c2ccccc2OC)c2nnnn2C2CCCCC2)CC1 (centres undefined),"0.398 µM [falling, partial curve]"
10,C/C(Cl)=C/Cn1c(=O)c2c(nc(Br)n2Cc2ccccc2)n(C)c1=O,"0.398 µM [rising, single point]"
11,Cn1c(=O)c2c(nc(SCCN3CCOCC3)n2Cc2cccc3ccccc23)n(C)c1=O,"25.1 µM [rising, single point]"
12,Cc1nc(NC(=O)c2ccc(Br)s2)sc1C(=O)N(C)C,"25.1 µM [rising, single point]"
13,CCC(C(=O)Nc1cc(C)nn1-c1nc(C)cc(C)n1)c1ccccc1 (centres undefined),"10 µM [rising, partial curve]"
14,COc1ccc(S(=O)(=O)NCCCN2CCOCC2)c2ccccc12,"0.126 µM [falling, full curve, poor fit]"
15,CCCCc1ccc(-c2nc(-c3ccncc3)no2)cc1,"0.794 µM [rising, full curve]"
16,Cn1c(=NC(=O)CSCC(=O)N2CCCC2)sc2ccccc21,"0.316 µM [falling, partial curve]"
17,Cc1cccn2c(=O)c3cc(C(=O)NCc4cccnc4)c(=N)n(C(C)C)c3nc12,"15.8 µM [rising, partial curve]"
18,CCN(c1cccc(C(F)(F)F)c1)S(=O)(=O)c1ccc2c(c1)CCN2C(=O)C1CC1,"12.6 µM [rising, partial curve]"
19,CCN(CC)CCCN1C(=O)c2oc3ccccc3c(=O)c2C1c1cc(OC)ccc1OC (centres undefined),"25.1 µM [falling, single point]"
20,O=C(CN1C(=O)c2ccccc2C1=O)Nc1cccnc1,"5.01 µM [falling, single point]"
21,Cc1ccc2nc(NC(=O)C3CCN(S(=O)(=O)c4cccc5nsnc45)CC3)sc2c1,"0.00316 µM [falling, full curve, poor fit]"
22,O=C(NCc1cccnc1)c1cccc2c1C(=O)N(C1CCCCC1)C2,"1 µM [rising, partial curve]"
